US11752155B2, “Treatment of autism spectrum disorders, obsessive-compulsive disorder and anxiety disorders” (Rugen Holdings (Cayman) Limited, priority 2016, dated 2023)
Where “and” joins values, the source holds several entries; their conditions need not be identical. Identical values can stand only once. The name of at least one read-out is uncertain. Marks after values point to notes of the source that are not given here.

Assays:
[1] = test system: wild type mice (male NMRI); assay: Marble Burying Test in wild type mice; type: in vivo, mouse; settings: IP, doses not printed (three dose levels)
Experimental: Animals. Male NMRI mice (20-30 g body weight) were obtained from Janvier Labs (Le Genest-Saint Isle, France) and allowed to acclimate to the animal facility for at least 5 days. Twelve mice were studied per treatment group.
Compound formulation. The test compounds were prepared in a vehicle of 0.5% DMSO and 4% HP-β-CD, and administered orally (PO) or IP. The test compounds or vehicle were administered 20 minutes before the behavioral test described below. Clobazam (8 mg/kg IP), administered 30 minutes before the test, was used as the positive reference compound.
Clobazam was dispersed in 0.2% hydroxypropylmethylcellulose (HPMC) in physiological saline. Dosing volume was 10 mL/kg.
Testing procedure. The Marble Burying Test was conducted as previously described by Broekkamp et al. (Eur. J. Pharmacol. 1986, 126:223-229). Mice exposed to small novel objects (marbles) will bury them in the sawdust floor covering. Anxiolytics decrease the number of marbles buried at non-sedating doses. […] The number of marbles covered by sawdust (⅔ or more) was counted at the end of the 30-minute test. […]
Statistical analyses. Data were analyzed by comparing test compound-treated groups with the vehicle control group using the Kruskal-Wallis test followed by post-hoc Mann-Whitney U tests. Data comparing the reference compound with the vehicle were analyzed using the Mann-Whitney U test. […]

[2] = test system: wild type mice (male C57Bl/6); assay: Novelty Phobia Test in wild type mice; type: in vivo, mouse; settings: IP, 3 mg/kg, pre-test time 10 min
Experimental: Animals. Male C57Bl/6 mice (18-30 g body weight; 6-8 weeks of age) were obtained from Slaccas (Shanghai, China) and allowed to acclimate to the animal facility for 7 days. Mice were group housed in plastic cages (no more than 4 animals per cage) on wood shavings with nesting material. All animals had free access to food (M01-F, Slaccas) and water. The animal facility was maintained under artificial lighting between 7:00 AM and 7:00 PM in a controlled ambient temperature of 22-24° C. and relative humidity between 50-60%.
Compound formulation. The test compounds were prepared in a vehicle of DMSO and HP-β-CD, and administered IP or PO. The test compounds or vehicle were administered at various times (10-20 minutes) before the behavioral test described below. Dosing volume was 10 mL/kg.
Testing procedure. […] For the entire 15-minute test period, video was recorded for offline analysis with Any-maze Video Tracking software (Stoelting Co., Wood Dale, Ill.). The total distance traveled during the entire 15 minutes and the number of bouts that each mouse touched the novel object during the last 5 minutes were measured.
Statistical analyses. […] Data were analyzed using one-way analysis of variance (ANOVA; Prism, GraphPad Software Inc., San Diego, Calif.), followed by the post-hoc Dunnett's test to compare test compound-treated groups with the vehicle control. […]

Compound | Percent Change in marbles buried relative to vehicle [1] | Percent Change in Novel Object Number of Nose Touches relative to vehicle control [2]
Cc1ccc(COC(=O)N2CC[C@H](CNc3cccnn3)C(F)(F)C2)cc1 [E1-24.2^B′, (R)-4-methylbenzyl 3,3-difluoro-4-((pyridazin-3-ylamino)methyl)piperidine-1-carboxylate] | −100*** −100*** −100*** percent | –
Cc1ccc(COC(=O)N2CC[C@H](CNc3nccn4cnnc34)C(F)(F)C2)cc1 [E1-1.2^B′] | – | 67.8% and 120% and 123*** percent
